In patent US20160310481A1, “LAQUINIMOD FOR TREATMENT OF CANNABINOID RECEPTOR TYPE 1(CB1) MEDIATED DISORDERS” (Teva Pharmaceutical Industries, Ltd., priority 2012, published 2016):
At least one compound was matched to its structure with a doubt left.

System: GABAergic transmission in control striatal neurons
Assay: Bath application on corticostriatal slices of wild type mice: sIPSCs (basal GABAergic transmission)
Format: cell-based
Conditions: recorded in the presence of LQ, n=5; bicuculline 10 μM

CN1CCc2cc3c(cc2[C@H]1[C@@H]1OC(=O)c2c1ccc1c2OCO1)OCO3 [bicuculline]
blockade of sIPSCs: fully blocked
